{"sequences": {"note": "The chains behind the UniProt entries cited, without tags or fusion partners.", "UniProt Q8IXI2": "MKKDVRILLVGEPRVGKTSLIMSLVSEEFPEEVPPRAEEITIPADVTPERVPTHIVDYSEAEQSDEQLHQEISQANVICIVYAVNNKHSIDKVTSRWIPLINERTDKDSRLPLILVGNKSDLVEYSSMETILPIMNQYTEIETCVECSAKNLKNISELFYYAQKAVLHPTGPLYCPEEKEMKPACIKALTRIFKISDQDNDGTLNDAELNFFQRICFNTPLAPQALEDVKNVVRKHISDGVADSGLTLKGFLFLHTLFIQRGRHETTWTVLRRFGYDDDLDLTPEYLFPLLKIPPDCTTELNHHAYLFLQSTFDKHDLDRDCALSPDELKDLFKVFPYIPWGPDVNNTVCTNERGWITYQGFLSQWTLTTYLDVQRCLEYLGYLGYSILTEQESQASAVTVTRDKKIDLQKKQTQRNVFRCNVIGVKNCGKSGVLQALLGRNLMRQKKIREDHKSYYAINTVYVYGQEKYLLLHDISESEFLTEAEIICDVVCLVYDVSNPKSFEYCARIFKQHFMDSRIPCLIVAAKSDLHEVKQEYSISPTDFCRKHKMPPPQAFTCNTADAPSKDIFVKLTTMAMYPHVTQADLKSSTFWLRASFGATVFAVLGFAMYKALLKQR", "UniProt Q9BXM7": "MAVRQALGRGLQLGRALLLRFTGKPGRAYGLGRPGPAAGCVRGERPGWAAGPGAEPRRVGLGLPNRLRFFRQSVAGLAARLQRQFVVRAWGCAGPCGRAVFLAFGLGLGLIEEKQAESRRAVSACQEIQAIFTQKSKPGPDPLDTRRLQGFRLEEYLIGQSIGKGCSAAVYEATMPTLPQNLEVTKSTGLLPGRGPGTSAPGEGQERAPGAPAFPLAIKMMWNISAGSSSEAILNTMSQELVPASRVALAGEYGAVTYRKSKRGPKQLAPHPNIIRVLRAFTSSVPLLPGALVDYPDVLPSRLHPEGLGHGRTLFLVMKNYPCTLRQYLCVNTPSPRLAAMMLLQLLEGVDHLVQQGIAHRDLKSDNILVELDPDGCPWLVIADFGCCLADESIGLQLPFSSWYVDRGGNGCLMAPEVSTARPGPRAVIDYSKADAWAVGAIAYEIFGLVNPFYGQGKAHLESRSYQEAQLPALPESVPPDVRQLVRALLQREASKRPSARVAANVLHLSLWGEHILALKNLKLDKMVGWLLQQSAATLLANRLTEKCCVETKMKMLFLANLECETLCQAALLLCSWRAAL"}, "source": "paper doi:10.1101/2021.08.25.457684", "key": {"[1]": {"biological_target": "T1, Mitofusin-1 (human (endogenous in U2OS)) (UniProt Q8IWA4)", "T1 sequence": "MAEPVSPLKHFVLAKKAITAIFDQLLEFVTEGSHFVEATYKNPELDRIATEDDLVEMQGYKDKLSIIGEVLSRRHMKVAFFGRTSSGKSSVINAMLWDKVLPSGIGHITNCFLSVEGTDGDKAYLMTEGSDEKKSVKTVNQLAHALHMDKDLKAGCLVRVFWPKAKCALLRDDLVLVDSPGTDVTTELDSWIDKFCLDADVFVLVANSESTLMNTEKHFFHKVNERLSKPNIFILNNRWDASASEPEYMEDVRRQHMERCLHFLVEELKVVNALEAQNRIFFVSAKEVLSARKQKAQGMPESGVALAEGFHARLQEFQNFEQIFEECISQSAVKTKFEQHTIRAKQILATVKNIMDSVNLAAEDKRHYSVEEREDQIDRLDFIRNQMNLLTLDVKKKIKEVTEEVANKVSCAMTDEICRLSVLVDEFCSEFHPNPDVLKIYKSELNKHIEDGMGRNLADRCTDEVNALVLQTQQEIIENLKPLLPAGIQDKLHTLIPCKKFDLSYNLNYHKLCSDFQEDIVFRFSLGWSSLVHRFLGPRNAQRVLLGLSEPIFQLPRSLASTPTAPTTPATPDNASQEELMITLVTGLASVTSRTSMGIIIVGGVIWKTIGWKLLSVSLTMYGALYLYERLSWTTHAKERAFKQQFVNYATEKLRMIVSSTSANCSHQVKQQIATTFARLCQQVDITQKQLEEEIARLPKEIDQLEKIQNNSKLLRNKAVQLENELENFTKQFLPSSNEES", "test": "proximity ligation"}, "[2]": {"biological_target": "Miro1 (human (endogenous in U2OS)) (UniProt Q8IXI2)", "test": "proximity ligation"}}, "note": "No constants are given. Whether binding was seen depends on the method and setting. Binding seen in cells or lysates may run through a third protein. For some assays here: Tags and fused reporters may be left off the sequences shown.", "data": [{"substance": "PINK1(WT)-3HA (from UniProt Q9BXM7 1-581) (enzyme)", "values": [{"measurement": "binding", "setting": "[1]", "result": "no binding"}, {"measurement": "binding", "setting": "[2]", "result": "no binding"}]}]}
